This is an account of results in the supplement of paper PMC11542785.

The structures appear in SMILES notation. Structures can show the parent of a compound that is named as a salt. Some of the results follow. Most values come without repeats; read them as rough.

The assay relates to Drosophila melanogaster DPAGT1 (Alg7) RNAi eye model. Put plainly: eye size Z-score vs DMSO-treated DPAGT1 model flies; higher = larger eye (suppression of DPAGT1 phenotype). The following applies: 5 uM.

On to `CC(C)NCC(O)c1cc(O)cc(O)c1` (configuration not stated) [Metaproterenol sulfate], for which the “eye size Z-score” value was found to be 1.24.
Same read-out and setting: as for `CC(C)NCC(O)COc1cccc2[nH]c3ccccc3c12` (configuration not stated) [Carazolol], the figure is 0.96; as for `O=C(O)CN(CCN(CC(=O)O)CC(=O)O)CCN(CC(=O)O)CC(=O)O` [Pentetic acid], -0.19; as for `C#CCN(C)CCCOc1ccc(Cl)cc1Cl` [Clorgyline hydrochloride], 0.86.
Same read-out and setting: in the case of `Cn1c(=O)c2c(ncn2CCO)n(C)c1=O` [Etofylline] it was 0.14; in that of `COc1ccccc1N1CCN(CCCNc2cc(=O)n(C)c(=O)n2C)CC1` [Urapidil hydrochloride], -1.02; in that of `COc1nc(N)nc2c1ncn2[C@@H]1O[C@H](CO)[C@@H](O)[C@@H]1O` [Nelarabine], 0.64.
The same measure, in the same setting: in the case of `OC[C@H]1O[C@H](O[C@H]2O[C@H](CO)[C@@H](O)[C@H](O)[C@H]2O)[C@H](O)[C@@H](O)[C@@H]1O` [Trehalose dihydrate] it was 1.07; in that of `CCC(=O)OCC(=O)[C@@]1(OC(=O)CC)[C@@H](C)C[C@H]2[C@@H]3CCC4=CC(=O)C=C[C@]4(C)[C@@]3(Cl)[C@@H](O)C[C@@]21C` [Beclomethasone dipropionate], -0.42.
In the case of `CCN(CC)Cc1cc(Nc2ccnc3cc(Cl)ccc23)ccc1O` [Amodiaquine dihydrochloride dihydrate], the “eye size Z-score” value is 0.48.
Same read-out and setting: as for `COCC(=O)O[C@]1(CCN(C)CCCc2nc3ccccc3[nH]2)CCc2cc(F)ccc2[C@@H]1C(C)C` [Mibefradil hydrochloride], the figure is 1.06; as for `C=CCSCC1Nc2cc(Cl)c(S(N)(=O)=O)cc2S(=O)(=O)N1` (configuration not stated) [Althiazide], -0.45; as for `c1ccc(CN(CC2=NCCN2)c2ccccc2)cc1` [Antazoline hydrochloride], 0.19.
Still for that read-out and setting: in the case of `CN(C)CC/C=C1/c2ccccc2COc2ccc(CC(=O)O)cc21` [Olopatadine hydrochloride] it was 1.39; in that of `CC(C(=O)O)c1ccc(C(=O)c2ccccc2)s1` (configuration not stated) [Tiaprofenic acid], 1.28; in that of `NC(=O)NS(=O)(=O)c1ccc(N)cc1` [Sulfacarbamide], 1.57.
For the compound `CC(=O)N(CC(O)CN(C(C)=O)c1c(I)c(C(=O)NCC(O)CO)c(I)c(C(=O)NCC(O)CO)c1I)c1c(I)c(C(=O)NCC(O)CO)c(I)c(C(=O)NCC(O)CO)c1I` (configuration not stated) [Iodixanol], the “eye size Z-score” value is 0.12.
The same measure, in the same setting: as for `N=C(N)NCCN1CCCCCCC1` [Guanethidine sulfate], the figure is -0.82; as for `C#C[C@]1(O)CC[C@H]2[C@@H]3CCC4=CC(=O)CC[C@@H]4[C@H]3CC[C@@]21CC` [(D-) Norgestrel], -0.39.
On the same count and under the same terms, as for `CC(CN(C)C)CN1c2ccccc2Sc2ccccc21` (configuration not stated) [Trimeprazine tartrate], the figure is -0.05.
The same measure, in the same setting: in the case of `CC1(C)[C@@H](OC(=O)CCC(=O)O)CC[C@]2(C)[C@H]3C(=O)C=C4[C@@H]5C[C@@](C)(C(=O)O)CC[C@]5(C)CC[C@@]4(C)[C@]3(C)CC[C@@H]12` [Carbenoxolone disodium salt] it was -0.33.
For `C=CCOC(Cn1ccnc1)c1ccc(Cl)cc1Cl` (configuration not stated) [Enilconazole], the “eye size Z-score” value came to 0.53.
`CC(CN(C)C)C(C)(O)Cc1ccc(Cl)cc1` (configuration not stated) [Clobutinol hydrochloride]: for the setting “female”, the “eye size Z-score” value amounted to 0.03.
Turning to `C[C@]1(Cn2ccnn2)[C@H](C(=O)O)N2C(=O)C[C@H]2S1(=O)=O` [Tazobactam], the “eye size Z-score” value was -0.27.
Still for that read-out and setting: as for `CC[C@@H](CO)NCCN[C@@H](CC)CO` [Ethambutol dihydrochloride], the figure is 0.9; as for `CC(=O)OCC(=O)[C@@]1(OC(C)=O)[C@@H](C)C[C@H]2[C@@H]3C[C@H](F)C4=CC(=O)C=C[C@]4(C)[C@@]3(F)[C@@H](O)C[C@@]21C` [Diflorasone Diacetate], -0.57.
On the same count and under the same terms, in the case of `CCN(CC)CCOCCOC(=O)C(CC)(CC)c1ccccc1` [Oxeladin citrate] it was 0.3; in that of `CCCOc1ccc(C(=O)OCCN(CC)CC)cc1N` [Proparacaine hydrochloride], 0.02; in that of `NC1CCN(c2nc3c(cc2F)c(=O)c(C(=O)O)cn3-c2ccc(F)cc2F)C1` (configuration not stated) [Tosufloxacin hydrochloride], -0.2.
Still for that read-out and setting: in the case of `COC(=O)Nc1nc2cc([S+]([O-])c3ccccc3)ccc2[nH]1` (configuration not stated) [Oxfendazole] it was 0.44; in that of `COc1ccccc1OCC(O)COC(N)=O` (configuration not stated) [Methocarbamol], -0.64.
Consider `Cc1cc(N)c2ccccc2[n+]1CCCCCCCCCC[n+]1c(C)cc(N)c2ccccc21` [Dequalinium dichloride], for which the “eye size Z-score” value came to 0.24.
The same measure, in the same setting: as for `Nc1ccn([C@@H]2CS[C@H](CO)O2)c(=O)n1` [Lamivudine], the figure is 1.02; as for `CO/N=C(\C(=O)N[C@@H]1C(=O)N2C(C(=O)OC(C)OC(C)=O)=C(COC(N)=O)CS[C@H]12)c1ccco1` (some centres not stated) [Cefuroxime axetil], -0.23.
Same read-out and setting: as for `NC(=O)[C@@H]1CCCN1C(=O)[C@H](Cc1c[nH]cn1)NC(=O)[C@@H]1CCC(=O)N1` [Thyrotropin-Releasing Hormone], the figure is -0.54.
On the same count and under the same terms, in the case of `O=C(c1ccccc1)c1ccc2n1CCC2C(=O)O` (configuration not stated) [Ketorolac tromethamine] it was 0.51; in that of `CCOC(=O)[C@@](C)(N)Cc1ccc(O)c(O)c1` [Methyldopate hydrochloride], 0.
As to `COc1c(N2CCNC(C)C2)c(F)cc2c(=O)c(C(=O)O)cn(C3CC3)c12` (configuration not stated) [Gatifloxacin], the “eye size Z-score” value was 1.08.
On the same count and under the same terms, in the case of `CN1Cc2c(N)cccc2C(c2ccccc2)C1` (configuration not stated) [Nomifensine maleate] it was 0.84; in that of `CCN[C@@H]1C[C@H](N)[C@@H](O[C@H]2OC(CN)=CC[C@H]2N)[C@H](O)[C@H]1O[C@H]1OC[C@](C)(O)[C@H](NC)[C@H]1O` [Netilmicin sulfate], 1.17; in that of `CC(C)(O)c1ccccc1CC[C@@H](SCC1(CC(=O)O)CC1)c1cccc(/C=C/c2ccc3ccc(Cl)cc3n2)c1` [Montelukast], -0.55.
Still for that read-out and setting: as for `c1ccc(CNc2ncnc3nc[nH]c23)cc1` [Aminopurine, 6-benzyl], the figure is 0.87; as for `Nc1ccc(S(=O)(=O)Nc2ccccn2)cc1` [Sulfapyridine], 0.71.
As for `Nc1ccn([C@@H]2O[C@H](CO)[C@@H](O)[C@@H]2O)c(=O)n1` [Cytarabine], the “eye size Z-score” value amounted to 0.71.
Same read-out and setting: as for `COc1ccnc(C[S+]([O-])c2nc3cc(OC(F)F)ccc3[nH]2)c1OC` (configuration not stated) [Pantoprazole sodium], the figure is -0.02.
`C[C@@H]1C[C@H]2[C@@H]3C[C@H](F)C4=CC(=O)C=C[C@]4(C)[C@@]3(F)[C@@H](O)C[C@]2(C)[C@@]1(O)C(=O)COC(=O)C(C)(C)C` [Flumethasone pivalate]: the “eye size Z-score” value worked out at 0.12.
Still for that read-out and setting: in the case of `O=c1[nH]cnc2c1ncn2[C@@H]1O[C@H](CO)[C@@H](O)[C@H]1O` [Inosine] it was 1.04.
Still for that read-out and setting: as for `CCOc1ccccc1OC(c1ccccc1)C1CNCCO1` (configuration not stated) [Reboxetine mesylate], the figure is -0.13; as for `CCN1/C(=C/C=C/C=C/c2sc3ccccc3[n+]2CC)Sc2ccccc21` [Dithiazanine iodide], -0.14; as for `CN(C)CCCN1c2ccccc2Sc2ccc(Cl)cc21` [Chlorpromazine hydrochloride], -0.27.
As for `COc1ccc(CC2c3cc(OC)c(OC)cc3CC[N+]2(C)CCC(=O)OCCCCCOC(=O)CC[N+]2(C)CCc3cc(OC)c(OC)cc3C2Cc2ccc(OC)c(OC)c2)cc1OC` (configuration not stated) [Atracurium besylate], the “eye size Z-score” value is 0.45.
Still for that read-out and setting: as for `CC(=O)[C@H]1CC[C@H]2[C@@H]3CC=C4C[C@@H](O)CC[C@]4(C)[C@H]3CC[C@]12C` [Pregnenolone], the figure is 0.56; as for `CC(C(=O)O)c1ccc2c(c1)CC(=O)c1ccccc1S2` (configuration not stated) [Zaltoprofen], -0.54.
The same measure, in the same setting: as for `CCN(CCO)CCCC(C)Nc1ccnc2cc(Cl)ccc12` (configuration not stated) [Hydroxychloroquine sulfate], the figure is -0.43.
The same measure, in the same setting: in the case of `CCCCN1CCCCC1C(=O)Nc1c(C)cccc1C` (configuration not stated) [Bupivacaine hydrochloride] it was 0.29.
Take `CCOC(=O)NNc1nncc2ccccc12` [Todralazine hydrochloride]: the “eye size Z-score” value was determined as 1.32.
The same measure, in the same setting: in the case of `CC(C)(C)c1ccc(C(O)CCCN2CCC(C(O)(c3ccccc3)c3ccccc3)CC2)cc1` (configuration not stated) [Terfenadine] it was 1.46; in that of `CC(COc1ccccc1)NC(C)C(O)c1ccc(O)cc1` (configuration not stated) [Isoxsuprine hydrochloride], -0.53; in that of `CCCCC1(COC(=O)CCC(=O)O)C(=O)N(c2ccccc2)N(c2ccccc2)C1=O` [Suxibuzone], -0.29.
As to `COc1cc(NC(C)CCCN)c2ncccc2c1` (configuration not stated) [Primaquine diphosphate], the “eye size Z-score” value was -0.67.
For the compound `CCCCNc1c(C(=O)OCC)c(C)nc2c1cnn2CC` [Tracazolate hydrochloride], the “eye size Z-score” value is 1.08.
Still for that read-out and setting: as for `COc1cc(-c2ccc(=O)[nH]n2)ccc1OC(F)F` [Zardaverine], the figure is -0.28; as for `CC1=C(/C=C/C(C)=C/C=C/C(C)=C\C(=O)O)C(C)(C)CCC1` [Isotretinoin], -0.21; as for `CC/C(=C(/CC)c1ccc(O)cc1)c1ccc(O)cc1` [Diethylstilbestrol], -0.07.
Still for that read-out and setting: as for `CSc1ccc2c(c1)N(CCC1CCCCN1C)c1ccccc1S2` (configuration not stated) [Thioridazine hydrochloride], the figure is -0.12.
In the case of `Cc1cc(-c2ccccc2)nnc1NCCN1CCOCC1` [Minaprine dihydrochloride], the “eye size Z-score” value worked out at 0.53.
Still for that read-out and setting: as for `NC(N)=Nc1nc(CSCC/C(N)=N/S(N)(=O)=O)cs1` [Famotidine], the figure is 0.43; as for `CN(C)[C@@H]1C(O)=C(C(N)=O)C(=O)[C@@]2(O)C(O)=C3C(=O)c4c(O)cccc4[C@@](C)(O)[C@H]3[C@H](O)[C@@H]12` [Oxytetracycline dihydrate], -0.11; as for `Cc1cc(NS(=O)(=O)c2ccc(N)cc2)nc(C)n1` [Sulfisomidine], 0.08.
Regarding `Cc1ccsc1/C=C/C1=NCCCN1C` [Morantel tartrate], the “eye size Z-score” value was -0.2.
The same measure, in the same setting: in the case of `CCCSS/C(CCO)=C(/C)N(C=O)Cc1cnc(C)nc1N` [Prosultiamine] it was 0.89; in that of `Nc1nc(NC2CC2)c2ncn([C@H]3C=C[C@@H](CO)C3)c2n1` [Abacavir sulfate], -1.06.
The same measure, in the same setting: in the case of `CCOc1ccc2nc3cc(N)ccc3c(N)c2c1` [Ethacridine lactate] it was 0.47; in that of `CCN(CC)CCNc1ccc(CO)c2sc3ccccc3c(=O)c12` [Hycanthone], 0.59; in that of `CNC(C)CCC=C(C)C` (configuration not stated) [Isometheptene mucate], -0.21.
Same read-out and setting: as for `CC(C)(C)CC(C)(C)c1ccc(O)c(Cc2ccc(Cl)cc2Cl)c1` [Clofoctol], the figure is -0.19.
In the case of `CN1CCN(c2c(F)cc3c(=O)c(C(=O)O)cn4c3c2OCN4C)CC1` [Marbofloxacin], the “eye size Z-score” value was -0.2.
As to `CCOC(=O)c1ccc(N)cc1` [Benzocaine], the “eye size Z-score” value came out at 0.16.
Same read-out and setting: in the case of `CCN(CC)CCOC(=O)C(c1ccccc1)c1ccccc1` [Adiphenine hydrochloride] it was 1.31; in that of `OC(CCCN1CCCCC1)(c1ccccc1)c1ccccc1` [Diphenidol hydrochloride], -0.43; in that of `COc1cccc(OC)c1C(=O)N[C@@H]1C(=O)N2[C@@H]1SC(C)(C)[C@@H]2C(=O)O` [Methicillin sodium], -0.66.
Still for that read-out and setting: in the case of `Cc1ccc(S(=O)(=O)NC(=O)NN2CCCCCC2)cc1` [Tolazamide] it was 0.78.
